Results from article PMC3579940.
Results are given in words; binding and its absence hold for the method and conditions named. In cells and extracts the contact can be indirect. Some binding calls cover weakened binding; strength is not graded here. Tags and fused reporters may be left off the sequences shown.

Sequences of proteins named here, by UniProt entry; tags and fusion partners are left off. Residues count along the entry.
UniProt Q99075, residues 20-208: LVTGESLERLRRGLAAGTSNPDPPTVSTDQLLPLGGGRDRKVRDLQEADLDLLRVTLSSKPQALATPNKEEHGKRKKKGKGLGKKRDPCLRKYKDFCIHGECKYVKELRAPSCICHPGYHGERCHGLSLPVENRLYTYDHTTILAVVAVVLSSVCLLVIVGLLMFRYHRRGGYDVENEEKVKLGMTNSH
UniProt P01135, residues 24-160: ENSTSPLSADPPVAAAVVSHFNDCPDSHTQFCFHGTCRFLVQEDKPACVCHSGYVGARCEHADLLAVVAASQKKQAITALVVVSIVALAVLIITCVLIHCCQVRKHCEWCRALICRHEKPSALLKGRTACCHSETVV

Tests used:
Assay in all cases: co-IP; HT1080 cells stably expressing proHB-EGF, proTGF-α, proAR or proEPR, transiently transfected with FLAG-PLZF; 100 nM TPA for 1 h; IP with anti-EGFR ligand-CTF antibodies, blot with anti-FLAG
[1] = molecular target: proHB-EGF stably expressed in HT1080 cells (UniProt Q99075)
[2] = molecular target: proTGF-α stably expressed in HT1080 cells (UniProt P01135)
[3] = molecular target: T1, proEPR (pro-epiregulin) stably expressed in HT1080 cells (UniProt O14944)
T1 sequence: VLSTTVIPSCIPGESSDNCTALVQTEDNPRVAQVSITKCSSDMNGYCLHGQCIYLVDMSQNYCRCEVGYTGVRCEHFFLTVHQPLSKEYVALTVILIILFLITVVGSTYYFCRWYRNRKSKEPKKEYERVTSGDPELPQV

Measured: binding

B1: FLAG-tagged full length PLZF (promyelocytic leukemia zinc finger protein) (protein, UniProt Q05516 1-673)
chain: MDLTKMGMIQLQNPSHPTGLLCKANQMRLAGTLCDVVIMVDSQEFHAHRTVLACTSKMFEILFHRNSQHYTLDFLSPKTFQQILEYAYTATLQAKAEDLDDLLYAAEILEIEYLEEQCLKMLETIQASDDNDTEATMADGGAEEEEDRKARYLKNIFISKHSSEESGYASVAGQSLPGPMVDQSPSVSTSFGLSAMSPTKAAVDSLMTIGQSLLQGTLQPPAGPEEPTLAGGGRHPGVAEVKTEMMQVDEVPSQDSPGAAESSISGGMGDKVEERGKEGPGTPTRSSVITSARELHYGREESAEQVPPPAEAGQAPTGRPEHPAPPPEKHLGIYSVLPNHKADAVLSMPSSVTSGLHVQPALAVSMDFSTYGGLLPQGFIQRELFSKLGELAVGMKSESRTIGEQCSVCGVELPDNEAVEQHRKLHSGMKTYGCELCGKRFLDSLRLRMHLLAHSAGAKAFVCDQCGAQFSKEDALETHRQTHTGTDMAVFCLLCGKRFQAQSALQQHMEVHAGVRSYICSECNRTFPSHTALKRHLRSHTGDHPYECEFCGSCFRDESTLKSHKRIHTGEKPYECNGCGKKFSLKHQLETHYRVHTGEKPFECKLCHQRSRDYSAMIKHLRTHNGASPYQCTICTEYCPSLSSMQKHMKGHKPEEIPPDWRIEKTYLYLCYV
binds: [1] | [2] | [3]
